Results are given in words; binding and its absence hold for the method and conditions named. Some entries that bind do so weakly or less than the wild type. Where a sequence is shown, tags or fusion partners need not be part of it.
Biological target: eEF1A1 (UniProt P10126)
Test: TAP purification of tagged latexin from FDCP-1 lysates, Western blot with anti-eEF1A1 antibody (association in a lysate; may be indirect)

Chains of the proteins cited; added tags and fusions are not shown. Residues count along the entry.
UniProt P10126, residues 2-462: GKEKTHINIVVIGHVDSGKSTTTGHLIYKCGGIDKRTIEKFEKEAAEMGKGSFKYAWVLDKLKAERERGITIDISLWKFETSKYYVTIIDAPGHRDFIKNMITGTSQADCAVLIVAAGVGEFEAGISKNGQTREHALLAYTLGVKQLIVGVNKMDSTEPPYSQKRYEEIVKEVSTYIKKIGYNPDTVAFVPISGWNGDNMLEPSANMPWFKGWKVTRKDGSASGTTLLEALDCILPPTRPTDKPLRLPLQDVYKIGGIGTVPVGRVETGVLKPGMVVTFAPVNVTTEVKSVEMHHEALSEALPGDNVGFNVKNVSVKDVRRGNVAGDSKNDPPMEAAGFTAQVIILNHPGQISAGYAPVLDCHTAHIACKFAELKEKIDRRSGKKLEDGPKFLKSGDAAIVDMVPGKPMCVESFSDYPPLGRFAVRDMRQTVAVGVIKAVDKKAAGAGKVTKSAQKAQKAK

B1: TAP-tagged latexin (TAP-m(ouse)latexin) (protein, mouse, UniProt P70202 1-222, looked up, not shown: large carriers)
chain: MEIPPTHYAASRAASVAENCINYQQGTPHKLFLVQTVQQASKEDIPGRGHKYHLKFSVEEIIQKQVTVNCTAEVLYPQMGQGSAPEVNFTFEGEIGKNPDEEDNTFYQSLMSLKRPLEAQDIPDNFGNVSPQMKPVQHLAWVACGYVMWQNSTEDTWYKMLKIQTVKQVQRNDDFIELDYTILLHDIASQEIIPWQMQVLWHPQYGTKVKHNSRLPKEGQAE
- binding: binds

Reference: patent US20100183585A1, “METHODS AND COMPOSITIONS FOR TREATING TUMORS AND METASTASES THROUGH THE MODULATION OF LATEXIN” (University of Kentucky Research Foundation, priority 2008, published 2010)
